Experimental data as given in the supplement of paper PMC12067093, “Discovery and optimisation of a covalent ligand for TRIM25 and its application to targeted protein ubiquitination” (Chemical Science, 2025).
The list shows a part of the results.

Compound: CC1Cc2ccccc2N1C(=O)C1CCCN(C1)C(=O)CCl (mixture of isomers) [TRIM25 ligand 11 (diastereomer mixture)]
Assay: probe-labelled cysteine peptide fold change vs DMSO (competition) (log2 fold change); higher = less target engagement (more negative = stronger competition)
Settings: THP-1, incubation time: 4 h
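Note: competitive chemoproteomic profiling in live THP-1 cells with an iodoacetamide desthiobiotin (IA-DTB) probe, comparing probe-labelled peptide intensities in compound-treated cells against DMSO-treated controls.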

| Target | probe-labelled cysteine peptide fold change (10 µM) | probe-labelled cysteine peptide fold change (50 µM) |
| --- | --- | --- |
| QTRT1_Q9BXR0_67_GITTEQLDALGCR (UniProt Q9BXR0) | -0.0588 | 0.169 |
| RAB18_Q9NP72_155_TCDGVQCAFEELVEK (UniProt Q9NP72) | -0.0386 | -0.358 |
| RABL2A_Q9UBK7_128_EFRPEIPCIVVANK (UniProt Q9UBK7) | 0.0337 | 0.0503 |
| QSER1_Q2KHR3_1709_KNEDLGQEEIVQLCMK (UniProt Q2KHR3) | 0.135 | -0.0383 |
| RAB3GAP1_Q15042_218_IGCPLTPLPPVSIAIR (UniProt Q15042) | 0.158 | -0.0394 |
| RAB3GAP2_Q9H2M9_395_HGESICLSPCNTLAAVTDDFGR (UniProt Q9H2M9) | 0.106 | -0.00717 |
| RAB1A_P62820_26_SCLLLR (UniProt P62820) | -0.339 | 0.198 |
| RAD54B_Q9Y620_521_AAELTCLTGLFILR (UniProt Q9Y620) | 0.0598 | 0.237 |
| PWP2_Q15269_508_LLDVLSGHEGPISGLCFNPMK (UniProt Q15269) | 0.11 | 0.0145 |
| QDPR_P09417_161_GAVHQLCQSLAGK (UniProt P09417) | -0.0291 | 0.0978 |
| QTRT2_Q9H974_324_KIETTGCNQEITSFEINLK (UniProt Q9H974) | -0.19 | -0.251 |
| PUS10_Q3MIT2_29_FCGVDFHAPYK (UniProt Q3MIT2) | -0.00925 | 0.0875 |
| RABL3_Q5HYI8_27_SSLVHLLCQNQVLGNPSWTVGCSVDVR (UniProt Q5HYI8) | 0.116 | -0.0205 |
| PXN_P49023_505_ECFTPFVNGSFFEHDGQPYCEVHYHER (UniProt P49023) | 0.178 | 0.282 |

Single records (already shown). Values in the order: probe-labelled cysteine peptide fold change (10 µM) | probe-labelled cysteine peptide fold change (50 µM)
QDPR_P09417_161_GAVHQLCQSLAGK (UniProt P09417) is listed as -0.0291 | 0.0978
RAB18_Q9NP72_155_TCDGVQCAFEELVEK (UniProt Q9NP72) is listed as -0.0386 | -0.358
